Where a name gives a salt, the structure may show the parent alone. The list shows a part of the results. The calls rarely recur for the same compound in another form.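 In K562 cells expressing nanoluciferase-fused kinases, luminescence was recorded at 4 h intervals between 2 and 18 h, normalized as percent of control with DMSO at 100% and a positive control at 0%. A significant (2 sigma) signal drop marks a time point as decreased. The authors' rule for a hit is not shown and takes in more than the number of time points.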
Assays:
Assay in all cases: kinase-Nluc reporter destabilization hit call (1 = scored as downregulated) (binary); higher = compound decreases kinase abundance
Settings in all cases: K562; 2-18 h
MAPK1 = MAPK1 (UniProt P28482)
MAPK4 = MAPK4 (UniProt P31152)
MAPKAPK2 = MAPKAPK2 (UniProt P49137)
MKNK1 = MKNK1 (UniProt Q9BUB5)
NTRK2 = NTRK2 (UniProt Q16620)
NTRK3 = NTRK3 (UniProt Q16288)
PAK4 = PAK4 (UniProt O96013)
PBK = PBK (UniProt Q96KB5)
PDGFRB = PDGFRB (UniProt P09619)
PDK1 = PDK1 (UniProt Q15118)
PDPK1 = PDPK1 (UniProt O15530)
PIK4CA = PIK4CA (UniProt P42356)
PIK4CB = PIK4CB (UniProt Q9UBF8)
PLK1 = PLK1 (UniProt P53350)
PRKAA1 = PRKAA1 (UniProt Q13131)
PRKCA = PRKCA (UniProt P17252)
PTK2 = PTK2 (UniProt Q05397)
PTK2B = PTK2B (UniProt Q14289)
RAF1 = RAF1 (UniProt P04049)
[1] = molecular target: RAF1_S257L (clone: RAF1_mut) (UniProt P04049)

By UniProt entry, the sequences of proteins in these tests, tags left out. Where a name states a change or a piece, a line headed by the entry shows the natural chain unless it says otherwise.
UniProt P28482, whole entry: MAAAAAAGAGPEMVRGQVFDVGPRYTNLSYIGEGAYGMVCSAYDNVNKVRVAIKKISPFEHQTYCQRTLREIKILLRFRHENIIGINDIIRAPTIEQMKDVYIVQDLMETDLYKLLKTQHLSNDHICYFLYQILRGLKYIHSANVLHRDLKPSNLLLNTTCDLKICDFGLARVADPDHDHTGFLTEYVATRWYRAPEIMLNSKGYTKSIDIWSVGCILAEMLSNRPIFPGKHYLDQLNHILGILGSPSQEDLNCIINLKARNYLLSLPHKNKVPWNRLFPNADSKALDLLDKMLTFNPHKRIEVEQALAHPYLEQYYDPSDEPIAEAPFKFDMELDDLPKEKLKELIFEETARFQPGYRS
UniProt P31152, whole entry: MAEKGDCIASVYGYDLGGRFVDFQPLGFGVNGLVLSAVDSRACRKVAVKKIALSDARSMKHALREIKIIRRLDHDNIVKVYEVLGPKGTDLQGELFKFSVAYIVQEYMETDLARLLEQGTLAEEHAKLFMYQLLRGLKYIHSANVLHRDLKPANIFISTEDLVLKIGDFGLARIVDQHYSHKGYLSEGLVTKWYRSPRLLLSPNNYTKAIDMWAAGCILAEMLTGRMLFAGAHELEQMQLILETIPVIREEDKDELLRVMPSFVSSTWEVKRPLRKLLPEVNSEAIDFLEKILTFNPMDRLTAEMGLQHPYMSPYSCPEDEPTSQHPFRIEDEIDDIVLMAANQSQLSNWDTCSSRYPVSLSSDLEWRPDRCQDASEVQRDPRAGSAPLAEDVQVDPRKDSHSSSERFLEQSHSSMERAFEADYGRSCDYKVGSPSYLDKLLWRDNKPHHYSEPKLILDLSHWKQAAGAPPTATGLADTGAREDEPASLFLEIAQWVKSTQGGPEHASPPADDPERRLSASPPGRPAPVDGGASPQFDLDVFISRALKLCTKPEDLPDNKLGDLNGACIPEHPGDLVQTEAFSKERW
UniProt P49137, whole entry, looked up: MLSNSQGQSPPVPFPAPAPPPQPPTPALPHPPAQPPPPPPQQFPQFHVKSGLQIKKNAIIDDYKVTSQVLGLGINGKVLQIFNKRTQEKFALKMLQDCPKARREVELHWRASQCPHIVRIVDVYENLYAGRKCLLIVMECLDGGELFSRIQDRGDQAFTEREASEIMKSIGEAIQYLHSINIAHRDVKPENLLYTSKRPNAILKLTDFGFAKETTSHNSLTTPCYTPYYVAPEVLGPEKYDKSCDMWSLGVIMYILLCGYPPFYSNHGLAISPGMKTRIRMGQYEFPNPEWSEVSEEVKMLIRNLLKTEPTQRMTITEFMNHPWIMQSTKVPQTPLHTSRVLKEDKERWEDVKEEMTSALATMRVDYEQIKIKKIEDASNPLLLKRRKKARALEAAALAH
UniProt Q9BUB5: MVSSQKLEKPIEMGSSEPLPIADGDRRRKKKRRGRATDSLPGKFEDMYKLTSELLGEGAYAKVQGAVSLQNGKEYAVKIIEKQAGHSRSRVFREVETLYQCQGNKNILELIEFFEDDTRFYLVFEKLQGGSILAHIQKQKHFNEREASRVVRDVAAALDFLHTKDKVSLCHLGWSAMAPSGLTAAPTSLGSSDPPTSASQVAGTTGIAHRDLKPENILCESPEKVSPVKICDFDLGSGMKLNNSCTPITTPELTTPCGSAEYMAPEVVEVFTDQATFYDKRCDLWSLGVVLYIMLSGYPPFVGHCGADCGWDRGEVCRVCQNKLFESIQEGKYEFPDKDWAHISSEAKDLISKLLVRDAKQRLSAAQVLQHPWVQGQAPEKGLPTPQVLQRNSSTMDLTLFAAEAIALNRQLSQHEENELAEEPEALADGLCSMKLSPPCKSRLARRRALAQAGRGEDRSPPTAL
UniProt Q16620, whole entry, looked up: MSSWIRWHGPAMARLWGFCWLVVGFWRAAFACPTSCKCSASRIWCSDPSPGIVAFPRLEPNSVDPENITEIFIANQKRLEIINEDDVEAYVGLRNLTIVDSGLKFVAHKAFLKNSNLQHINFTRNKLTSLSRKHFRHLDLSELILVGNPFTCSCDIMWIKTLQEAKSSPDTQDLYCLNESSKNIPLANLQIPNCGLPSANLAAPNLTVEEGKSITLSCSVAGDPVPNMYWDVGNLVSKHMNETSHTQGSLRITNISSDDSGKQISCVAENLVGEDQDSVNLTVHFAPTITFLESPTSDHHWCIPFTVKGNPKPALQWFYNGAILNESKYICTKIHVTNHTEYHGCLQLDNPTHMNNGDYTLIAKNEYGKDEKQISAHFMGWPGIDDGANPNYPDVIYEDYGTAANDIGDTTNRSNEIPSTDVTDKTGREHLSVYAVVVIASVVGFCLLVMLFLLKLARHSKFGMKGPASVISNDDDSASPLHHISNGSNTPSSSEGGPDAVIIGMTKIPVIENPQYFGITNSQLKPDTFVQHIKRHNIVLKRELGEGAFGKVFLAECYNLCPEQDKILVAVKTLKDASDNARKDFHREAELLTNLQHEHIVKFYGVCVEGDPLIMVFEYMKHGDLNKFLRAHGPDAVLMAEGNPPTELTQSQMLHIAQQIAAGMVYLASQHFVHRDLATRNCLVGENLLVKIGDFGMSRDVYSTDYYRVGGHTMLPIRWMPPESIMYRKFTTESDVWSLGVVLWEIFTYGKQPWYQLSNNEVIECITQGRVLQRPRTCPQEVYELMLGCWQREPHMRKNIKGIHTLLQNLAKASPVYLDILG
UniProt Q16288, whole entry, looked up: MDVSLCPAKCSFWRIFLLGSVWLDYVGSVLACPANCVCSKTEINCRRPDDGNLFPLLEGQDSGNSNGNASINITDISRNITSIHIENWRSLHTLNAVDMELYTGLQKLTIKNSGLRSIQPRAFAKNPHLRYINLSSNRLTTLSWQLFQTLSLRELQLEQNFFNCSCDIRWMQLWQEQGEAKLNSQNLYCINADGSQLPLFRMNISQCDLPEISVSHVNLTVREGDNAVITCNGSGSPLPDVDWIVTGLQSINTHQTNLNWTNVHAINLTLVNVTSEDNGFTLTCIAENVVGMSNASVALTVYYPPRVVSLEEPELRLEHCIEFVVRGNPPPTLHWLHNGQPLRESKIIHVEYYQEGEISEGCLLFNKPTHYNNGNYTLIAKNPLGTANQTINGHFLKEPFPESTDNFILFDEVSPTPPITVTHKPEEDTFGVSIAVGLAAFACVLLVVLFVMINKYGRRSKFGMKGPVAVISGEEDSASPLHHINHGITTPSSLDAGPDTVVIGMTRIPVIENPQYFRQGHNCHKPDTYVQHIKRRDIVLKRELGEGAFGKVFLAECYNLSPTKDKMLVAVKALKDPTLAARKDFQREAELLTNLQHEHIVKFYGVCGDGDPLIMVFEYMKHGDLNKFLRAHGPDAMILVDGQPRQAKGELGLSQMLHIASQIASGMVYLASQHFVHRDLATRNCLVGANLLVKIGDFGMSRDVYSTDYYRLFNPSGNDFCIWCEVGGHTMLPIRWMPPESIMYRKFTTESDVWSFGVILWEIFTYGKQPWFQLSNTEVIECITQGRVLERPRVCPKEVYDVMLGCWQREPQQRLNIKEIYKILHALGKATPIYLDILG
UniProt O96013: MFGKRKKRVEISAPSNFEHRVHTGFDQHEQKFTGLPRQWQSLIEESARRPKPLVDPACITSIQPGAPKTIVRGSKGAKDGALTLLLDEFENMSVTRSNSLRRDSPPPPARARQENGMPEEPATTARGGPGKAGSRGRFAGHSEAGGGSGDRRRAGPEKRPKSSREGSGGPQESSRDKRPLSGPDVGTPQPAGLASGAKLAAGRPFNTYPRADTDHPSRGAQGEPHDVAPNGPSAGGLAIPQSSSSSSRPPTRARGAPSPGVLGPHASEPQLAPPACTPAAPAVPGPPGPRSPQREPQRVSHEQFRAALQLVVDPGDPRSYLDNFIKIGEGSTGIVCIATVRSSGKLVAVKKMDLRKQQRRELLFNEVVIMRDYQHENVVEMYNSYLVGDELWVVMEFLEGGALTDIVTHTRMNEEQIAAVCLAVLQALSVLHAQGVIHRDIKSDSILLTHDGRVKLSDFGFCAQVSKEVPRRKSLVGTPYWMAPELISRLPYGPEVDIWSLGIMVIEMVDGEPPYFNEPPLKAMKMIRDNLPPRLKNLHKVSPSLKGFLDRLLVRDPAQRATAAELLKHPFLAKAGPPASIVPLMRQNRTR
UniProt Q96KB5: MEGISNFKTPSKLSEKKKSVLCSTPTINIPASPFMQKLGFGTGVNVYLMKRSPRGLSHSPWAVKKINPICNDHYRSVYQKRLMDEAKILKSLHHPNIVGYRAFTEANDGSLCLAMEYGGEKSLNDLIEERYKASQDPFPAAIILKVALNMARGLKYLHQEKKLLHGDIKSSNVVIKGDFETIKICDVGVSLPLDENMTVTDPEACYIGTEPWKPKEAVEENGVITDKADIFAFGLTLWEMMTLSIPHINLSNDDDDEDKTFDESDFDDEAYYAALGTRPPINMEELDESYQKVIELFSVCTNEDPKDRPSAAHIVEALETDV
UniProt P53350, whole entry: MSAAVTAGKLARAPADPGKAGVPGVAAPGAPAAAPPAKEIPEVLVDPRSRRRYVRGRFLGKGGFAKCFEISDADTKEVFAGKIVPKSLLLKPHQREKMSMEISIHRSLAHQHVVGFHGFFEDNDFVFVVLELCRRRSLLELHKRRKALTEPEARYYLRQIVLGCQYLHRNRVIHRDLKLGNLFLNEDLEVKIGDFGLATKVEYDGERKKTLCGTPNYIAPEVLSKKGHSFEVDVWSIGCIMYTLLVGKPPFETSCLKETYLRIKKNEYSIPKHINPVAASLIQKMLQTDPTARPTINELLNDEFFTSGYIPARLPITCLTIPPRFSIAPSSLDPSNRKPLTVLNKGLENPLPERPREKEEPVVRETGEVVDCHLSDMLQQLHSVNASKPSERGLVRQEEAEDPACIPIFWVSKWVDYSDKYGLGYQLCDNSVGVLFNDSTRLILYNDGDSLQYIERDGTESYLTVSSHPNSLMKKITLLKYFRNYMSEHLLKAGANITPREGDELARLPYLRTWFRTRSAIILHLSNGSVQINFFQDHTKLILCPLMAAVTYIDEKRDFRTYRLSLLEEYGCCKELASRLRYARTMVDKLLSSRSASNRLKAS
UniProt Q13131: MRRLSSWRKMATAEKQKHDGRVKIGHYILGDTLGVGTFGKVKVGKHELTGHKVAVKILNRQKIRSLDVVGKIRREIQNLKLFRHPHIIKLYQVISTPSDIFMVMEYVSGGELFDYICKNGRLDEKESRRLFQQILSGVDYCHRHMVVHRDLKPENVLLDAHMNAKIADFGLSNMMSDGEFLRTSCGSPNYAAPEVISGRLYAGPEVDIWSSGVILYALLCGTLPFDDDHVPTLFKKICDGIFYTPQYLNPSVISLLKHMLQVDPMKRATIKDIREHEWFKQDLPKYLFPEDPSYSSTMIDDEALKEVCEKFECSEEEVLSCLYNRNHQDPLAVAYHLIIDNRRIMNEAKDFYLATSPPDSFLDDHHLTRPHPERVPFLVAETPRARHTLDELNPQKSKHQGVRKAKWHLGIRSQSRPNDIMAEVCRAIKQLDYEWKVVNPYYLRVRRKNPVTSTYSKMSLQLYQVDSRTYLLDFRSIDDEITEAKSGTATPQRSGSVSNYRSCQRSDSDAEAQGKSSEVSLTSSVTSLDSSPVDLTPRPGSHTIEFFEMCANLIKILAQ

Measured: kinase-Nluc reporter destabilization hit call

CC(C)CC(=O)Nc1n[nH]c2c1CN(C(=O)C1CCN(C)CC1)C2(C)C (2.5 µM)
inactive: MAPK1 = 0 | MAPK4 = 0 | MAPKAPK2 = 0 | MKNK1 = 0 | NTRK2 = 0 | NTRK3 = 0 | PAK4 = 0 | PBK 0 | PDGFRB 0 | PDK1 = 0 | PDPK1 = 0 | PIK4CA 0 | PIK4CB 0 | PLK1 = 0 | PRKAA1 = 0 | PRKCA 0 | PTK2 = 0 | PTK2B 0 | RAF1 = 0 | [1] 0

Cc1ccc2c(Nc3ccc(Cl)cc3)nccc2c1Nc1ncccc1-c1ncnc2nc[nH]c12 [Raf inhibitor 1] (2.5 µM)
inactive: MAPK1 = 0 | MAPK4 = 0 | MAPKAPK2 = 0 | MKNK1 = 0 | NTRK2 = 0 | NTRK3 = 0 | PAK4 = 0 | PBK 0 | PDGFRB 0 | PDK1 = 0 | PDPK1 = 0 | PIK4CA 0 | PIK4CB 0 | PLK1 = 0 | PRKAA1 = 0 | PRKCA 0 | PTK2 = 0 | PTK2B 0 | RAF1 = 0 | [1] 0

Cc1cc(C(=O)Nc2cccc(C(=O)Nc3cccc(C(F)(F)F)c3)c2)on1 (10 µM)
inactive: MAPK1 = 0 | MAPK4 = 0 | MAPKAPK2 = 0 | MKNK1 = 0 | NTRK2 = 0 | NTRK3 = 0 | PAK4 = 0 | PBK 0 | PDGFRB 0 | PDK1 = 0 | PDPK1 = 0 | PIK4CA 0 | PIK4CB 0 | PLK1 = 0 | PRKAA1 = 0 | PRKCA 0 | PTK2 = 0 | PTK2B 0 | RAF1 = 0 | [1] 0

N#CC(=Cc1ccc(O)c(O)c1)C(=O)NCc1ccccc1 (mixture of isomers) (10 µM)
inactive: MAPK1 = 0 | MAPK4 = 0 | MAPKAPK2 = 0 | MKNK1 = 0 | NTRK2 = 0 | NTRK3 = 0 | PAK4 = 0 | PBK 0 | PDGFRB 0 | PDK1 = 0 | PDPK1 = 0 | PIK4CA 0 | PIK4CB 0 | PLK1 = 0 | PRKAA1 = 0 | PRKCA 0 | PTK2 = 0 | PTK2B 0 | RAF1 = 0 | [1] 0

CC(C)(C)S(=O)(=O)c1cc2c(Nc3ccc4scnc4c3)ncnc2cc1OCCO (2.5 µM)
inactive: MAPK1 = 0 | MAPK4 = 0 | MAPKAPK2 = 0 | MKNK1 = 0 | NTRK2 = 0 | NTRK3 = 0 | PAK4 = 0 | PBK 0 | PDGFRB 0 | PDK1 = 0 | PDPK1 = 0 | PIK4CA 0 | PIK4CB 0 | PLK1 = 0 | PRKAA1 = 0 | PRKCA 0 | PTK2 = 0 | PTK2B 0 | RAF1 = 0 | [1] 0

Cc1c[nH]c2ccccc12 [Skatole] (10 µM)
inactive: MAPK1 = 0 | MAPK4 = 0 | MAPKAPK2 = 0 | MKNK1 = 0 | NTRK2 = 0 | NTRK3 = 0 | PAK4 = 0 | PBK 0 | PDGFRB 0 | PDK1 = 0 | PDPK1 = 0 | PIK4CA 0 | PIK4CB 0 | PLK1 = 0 | PRKAA1 = 0 | PRKCA 0 | PTK2 = 0 | PTK2B 0 | RAF1 = 0 | [1] 0

3 entries already listed, ordered by number of heavy atoms, high to low:
Cc1ccc2c(Nc3ccc(Cl)cc3)nccc2c1Nc1ncccc1-c1ncnc2nc[nH]c12 [Raf inhibitor 1] (2.5 µM)
inactive: MAPK1 = 0 | MAPK4 = 0 | MAPKAPK2 = 0 | MKNK1 = 0 | NTRK2 = 0 | NTRK3 = 0 | PAK4 = 0 | PBK 0 | PDGFRB 0 | PDK1 = 0 | PDPK1 = 0 | PIK4CA 0 | PIK4CB 0 | PLK1 = 0 | PRKAA1 = 0 | PRKCA 0 | PTK2 = 0 | PTK2B 0 | RAF1 = 0 | [1] 0

CC(C)CC(=O)Nc1n[nH]c2c1CN(C(=O)C1CCN(C)CC1)C2(C)C (2.5 µM)
inactive: MAPK1 = 0 | MAPK4 = 0 | MAPKAPK2 = 0 | MKNK1 = 0 | NTRK2 = 0 | NTRK3 = 0 | PAK4 = 0 | PBK 0 | PDGFRB 0 | PDK1 = 0 | PDPK1 = 0 | PIK4CA 0 | PIK4CB 0 | PLK1 = 0 | PRKAA1 = 0 | PRKCA 0 | PTK2 = 0 | PTK2B 0 | RAF1 = 0 | [1] 0

N#CC(=Cc1ccc(O)c(O)c1)C(=O)NCc1ccccc1 (mixture of isomers) (10 µM)
inactive: MAPK1 = 0 | MAPK4 = 0 | MAPKAPK2 = 0 | MKNK1 = 0 | NTRK2 = 0 | NTRK3 = 0 | PAK4 = 0 | PBK 0 | PDGFRB 0 | PDK1 = 0 | PDPK1 = 0 | PIK4CA 0 | PIK4CB 0 | PLK1 = 0 | PRKAA1 = 0 | PRKCA 0 | PTK2 = 0 | PTK2B 0 | RAF1 = 0 | [1] 0

Following part

CC[C@H](CO)Nc1nc(NCc2ccccc2)c2ncn(C(C)C)c2n1 [Seliciclib] (10 µM)
inactive: MAPK1 = 0 | MAPK4 = 0 | MAPKAPK2 = 0 | MKNK1 = 0 | NTRK2 = 0 | NTRK3 = 0 | PAK4 = 0 | PBK 0 | PDGFRB 0 | PDK1 = 0 | PDPK1 = 0 | PIK4CA 0 | PIK4CB 0 | PLK1 = 0 | PRKAA1 = 0 | PRKCA 0 | PTK2 = 0 | PTK2B 0 | RAF1 = 0 | [1] 0

CCOc1ccn(-c2ccc(F)cc2)c(=O)c1C(=O)Nc1ccc(Oc2ccnc(N)c2Cl)c(F)c1 (10 µM)
inactive: MAPK1 = 0 | MAPK4 = 0 | MAPKAPK2 = 0 | MKNK1 = 0 | NTRK2 = 0 | NTRK3 = 0 | PAK4 = 0 | PBK 0 | PDGFRB 0 | PDK1 = 0 | PDPK1 = 0 | PIK4CA 0 | PIK4CB 0 | PLK1 = 0 | PRKAA1 = 0 | PRKCA 0 | PTK2 = 0 | PTK2B 0 | RAF1 = 0 | [1] 0

Cc1c[nH]c2nccc(Oc3c(F)cc(Nc4cc(Cl)nc(N)n4)cc3F)c12 (10 µM)
active: PTK2 = 1
inactive: MAPK1 = 0 | MAPK4 = 0 | MAPKAPK2 = 0 | MKNK1 = 0 | NTRK2 = 0 | NTRK3 = 0 | PAK4 = 0 | PBK 0 | PDGFRB 0 | PDK1 = 0 | PDPK1 = 0 | PIK4CA 0 | PIK4CB 0 | PLK1 = 0 | PRKAA1 = 0 | PRKCA 0 | PTK2B 0 | RAF1 = 0 | [1] 0

COc1cc(C)c(Sc2cnc(NC(=O)c3ccc(CNC(C)C(C)(C)C)cc3)s2)cc1C(=O)N1CCN(C(C)=O)CC1 (stereo not given) (2.5 µM)
inactive: MAPK1 = 0 | MAPK4 = 0 | MAPKAPK2 = 0 | MKNK1 = 0 | NTRK2 = 0 | NTRK3 = 0 | PAK4 = 0 | PBK 0 | PDGFRB 0 | PDK1 = 0 | PDPK1 = 0 | PIK4CA 0 | PIK4CB 0 | PLK1 = 0 | PRKAA1 = 0 | PRKCA 0 | PTK2 = 0 | PTK2B 0 | RAF1 = 0 | [1] 0

CC(C)(/C=C(\C#N)C(=O)N1CCC[C@@H](n2nc(-c3ccc(Oc4ccccc4)cc3F)c3c(N)ncnc32)C1)N1CCN(C2COC2)CC1 (2.5 µM)
inactive: MAPK1 = 0 | MAPK4 = 0 | MAPKAPK2 = 0 | MKNK1 = 0 | NTRK2 = 0 | NTRK3 = 0 | PAK4 = 0 | PBK 0 | PDGFRB 0 | PDK1 = 0 | PDPK1 = 0 | PIK4CA 0 | PIK4CB 0 | PLK1 = 0 | PRKAA1 = 0 | PRKCA 0 | PTK2 = 0 | PTK2B 0 | RAF1 = 0 | [1] 0

C=CC(=O)N1CCN(CCCn2c(=O)c(-c3c(Cl)c(OC)cc(OC)c3Cl)cc3cnc(NC)nc32)CC1 (10 µM)
inactive: MAPK1 = 0 | MAPK4 = 0 | MAPKAPK2 = 0 | MKNK1 = 0 | NTRK2 = 0 | NTRK3 = 0 | PAK4 = 0 | PBK 0 | PDGFRB 0 | PDK1 = 0 | PDPK1 = 0 | PIK4CA 0 | PIK4CB 0 | PLK1 = 0 | PRKAA1 = 0 | PRKCA 0 | PTK2 = 0 | PTK2B 0 | RAF1 = 0 | [1] 0

O=S(=O)(NCCNC/C=C/c1ccc(Br)cc1)c1cccc2cnccc12 [H-89 (dihydrochloride)] (10 µM)
inactive: MAPK1 = 0 | MAPK4 = 0 | MAPKAPK2 = 0 | MKNK1 = 0 | NTRK2 = 0 | NTRK3 = 0 | PAK4 = 0 | PBK 0 | PDGFRB 0 | PDK1 = 0 | PDPK1 = 0 | PIK4CA 0 | PIK4CB 0 | PLK1 = 0 | PRKAA1 = 0 | PRKCA 0 | PTK2 = 0 | PTK2B 0 | RAF1 = 0 | [1] 0

CNc1nc(-c2ccc3c(N)n[nH]c3c2)cc(N2C[C@@H](C(=O)NC3CCCCC3)CC[C@H]2C)n1 (10 µM)
active: PIK4CB 1
inactive: MAPK1 = 0 | MAPK4 = 0 | MAPKAPK2 = 0 | MKNK1 = 0 | NTRK2 = 0 | NTRK3 = 0 | PAK4 = 0 | PBK 0 | PDGFRB 0 | PDK1 = 0 | PDPK1 = 0 | PIK4CA 0 | PLK1 = 0 | PRKAA1 = 0 | PRKCA 0 | PTK2 = 0 | PTK2B 0 | RAF1 = 0 | [1] 0

CCC(=O)N1CCN(c2ccc(-n3c(=O)ccc4cnc5ccc(-c6cnc7ccccc7c6)cc5c43)cc2C(F)(F)F)CC1 [Torin 1] (2 µM)
inactive: MAPK1 = 0 | MAPK4 = 0 | MAPKAPK2 = 0 | MKNK1 = 0 | NTRK2 = 0 | NTRK3 = 0 | PAK4 = 0 | PBK 0 | PDGFRB 0 | PDK1 = 0 | PDPK1 = 0 | PIK4CA 0 | PIK4CB 0 | PLK1 = 0 | PRKAA1 = 0 | PRKCA 0 | PTK2 = 0 | PTK2B 0 | RAF1 = 0 | [1] 0

CCCCC[C@H](O)CC(=O)CCc1ccc(O)c(OC)c1 [[6]-Gingerol] (10 µM)
inactive: MAPK1 = 0 | MAPK4 = 0 | MAPKAPK2 = 0 | MKNK1 = 0 | NTRK2 = 0 | NTRK3 = 0 | PAK4 = 0 | PBK 0 | PDGFRB 0 | PDK1 = 0 | PDPK1 = 0 | PIK4CA 0 | PIK4CB 0 | PLK1 = 0 | PRKAA1 = 0 | PRKCA 0 | PTK2 = 0 | PTK2B 0 | RAF1 = 0 | [1] 0

O=C(c1ccc(-c2ccc(Cl)cc2)o1)N(Cc1ccccn1)c1ccc(N2CCNCC2)cc1 [MK2-IN-1 (hydrochloride)] (10 µM)
inactive: MAPK1 = 0 | MAPK4 = 0 | MAPKAPK2 = 0 | MKNK1 = 0 | NTRK2 = 0 | NTRK3 = 0 | PAK4 = 0 | PBK 0 | PDGFRB 0 | PDK1 = 0 | PDPK1 = 0 | PIK4CA 0 | PIK4CB 0 | PLK1 = 0 | PRKAA1 = 0 | PRKCA 0 | PTK2 = 0 | PTK2B 0 | RAF1 = 0 | [1] 0

COc1cc2c(Nc3ccc(NC(=O)c4ccccc4)cc3)ncnc2cc1OCCCN1CCOCC1 (10 µM)
inactive: MAPK1 = 0 | MAPK4 = 0 | MAPKAPK2 = 0 | MKNK1 = 0 | NTRK2 = 0 | NTRK3 = 0 | PAK4 = 0 | PBK 0 | PDGFRB 0 | PDK1 = 0 | PDPK1 = 0 | PIK4CA 0 | PIK4CB 0 | PLK1 = 0 | PRKAA1 = 0 | PRKCA 0 | PTK2 = 0 | PTK2B 0 | RAF1 = 0 | [1] 0
